Experimental data: patent US20200308240A1, “Targeting Innate Immune Signaling in Neuroinflammation and Neurodegeneration” (The General Hospital Corporation, priority 2016, published 2020)
Entries after “also recorded” stand apart in the source; their conditions may differ. At least one structure is not confirmed: it was looked up by name or label, or the drawing left a doubt.

Tested on: neuronal differentiated ReNcell VM cells
Assay: dsRNA mimetic (PolyIC)-induced neurodegeneration in differentiated ReNVM neurons, cell viability by Celltiter-Glo
Format: cell-based
Conditions: differentiated ReNVM human neurons transfected with PolyIC, FIGS. 4B-N
Procedure: FIGS. 3A-G. dsRNA induces a Type I interferon response and is sufficient to induced neurodegeneration in human neurons. A-E) Representative transmitted light images of differentiated ReNVM neurons transfected with increasing doses of PolyIC, a dsRNA mimetic, showing a dose-dependent loss of neurons after 48 hours. […] G) Western blots showing the elevated protein expression of type I interferon-stimulated genes in differentiated ReNVM cells 24 hour post transfection with PolyIC, using indicated antibodies.
FIGS. 4A-N. Inhibitors of key type I interferon regulators rescues PolyIC induced neurodegeneration in ReNVM cells.
Building on those findings, a novel in vitro human neuronal culture system was developed to recapitulate this pathophysiologic process. These cells can be used, e.g., to identify compounds that modulate dsRNA-mediated neurodegeneration, as a methodology for screening and validation of hits for the novel targets and related targets on the pathway for neurodegeneration and Alzheimer's disease pathogenesis as well as for purposes of drug screening and validation with the primary outcome being loss of neurons. Briefly, a dsRNA-mimetic was introduced into a human neural progenitor immortalized cell line, ReN VM cells, in vitro. […]

SMILES: N#CC[C@H](C1CCCC1)n1cc(-c2ncnc3[nH]ccc23)cn1 [NK-8, Ruxolitinib]
- rescue of PolyIC (dsRNA)-induced neurodegeneration / neuronal death: dose-dependent rescue of dsRNA-mediated neurodegeneration
- rescue of PolyIC (dsRNA)-induced neurodegeneration / neuronal death (listed as Ruxolitinib): blocked neurodegeneration in dose dependent manner; also recorded: rescued PolyIC induced neurodegeneration
